In all, about 320,000 compounds went through this assay and about 22,000 (6.9%) were called active. The shares of active, inactive and inconclusive entries below differ from those in the screen. The call rests on the fitted dose curve; in most records, active means well fitted inhibition curve with a large enough effect; inconclusive means small, poorly fitted or top-dose-only effect, or another doubt; inactive means no such curve, though single readings can be large or run the other way. Potencies beside an inconclusive call are fits to weak or partial responses and may not hold up.
experiment: Primary qHTS for delayed death inhibitors of the malarial parasite plastid, 96 hour incubation; conditions: P. falciparum luciferase reporter growth; series mostly up to 28.7 µM; activity change, negative = inhibition: at the top concentration
Outline: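 Two parasite generations (96 h, 37 C, 5% CO2) of compound exposure in infected erythrocytes (0.05% parasitemia, 2% hematocrit). Luciferase-reporter P. falciparum; decreased luminescence indicates inhibited growth, aimed at apicoplast-acting delayed death.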
On the % scale 0 is the no-effect control and ±100 the full control effect; potency means the concentration at half of the fitted maximal effect.

Compound	activity change, negative = inhibition	Potency
COc1ccc(OCCNS(=O)(=O)c2ccccc2)cc1	inactive: 68.6%	
Cc1ccc(NC(=O)C2c3ccccc3Oc3ccccc32)nc1		inconclusive: 11.7 µM [inhibitor, single point]
Oc1ccc(N2CCN(Cc3ccc(OCCCN4CCCCC4)cc3)CC2)cc1		inconclusive: 0.131 µM [inhibitor, partial curve, poor fit]
COc1ccc(/C=N\NC(=O)c2ccccc2)cc1COc1ccc(F)cc1		inconclusive: 8.28 µM [inhibitor, partial curve, poor fit]
CCOC(=O)C1=C(C)N=C2SCCC(=O)N2C1c1cccs1 (configuration not stated)	inactive: -6.46%	
CCCCCCCOc1ccc(OC(=O)c2cccnc2)cc1		inconclusive: 7.38 µM [inhibitor, partial curve, poor fit]
COc1ccc(F)c(CN2CCCC(CO)(Cc3cccc(Cl)c3)C2)c1 (configuration not stated)	inactive: -28.7%	
c1cc2c(cc1CN1CCOCC1)OCO2	inactive: -11.7%	
COc1cccc(C(c2nnnn2Cc2ccco2)N2CCN(c3cccc(C)c3C)CC2)c1OC (configuration not stated)	inactive: 7.79%	
Cc1cc(=O)[nH]c(SCc2nc3ccc([N+](=O)[O-])cc3[nH]2)n1		inconclusive: 4.15 µM [inhibitor, full curve]
CCOC(=O)CSc1nnc(NC(=O)c2cccc(S(=O)(=O)N3CCCCCC3)c2)s1		inconclusive: 10.4 µM [inhibitor, partial curve]
COc1cc(/C=C2\COC/C(=C\c3ccc(O)c(OC)c3)C2=O)ccc1O		inconclusive: 1.04 µM [inhibitor, full curve]
Cc1cccc(OCc2nnc(NC(=O)c3cccs3)s2)c1		inconclusive: 0.0033 µM [inhibitor, full curve, poor fit]
Cc1cccc(C(C)(C)C)c1OCCOCCN1CCCC1		inconclusive: 16.5 µM [inhibitor, single point]
CC(OC(=O)c1ccc(-c2ccc(O)cc2)cc1)C(=O)NC1CCCCC1C (configuration not stated)		inconclusive: 18.5 µM [inhibitor, single point]
Cc1cc(=O)oc2cc(OCC#N)ccc12	inactive: -6.67%	
O=C(O)c1cccc(NC(=O)c2cn(-c3ccccc3)nc2-c2ccc(F)cc2)c1		inconclusive: 18.5 µM [inhibitor, single point]
CN(CC(=O)Nc1ccccc1C(F)(F)F)C(=O)c1cc(Cl)nc2ccccc12		inconclusive: 10.4 µM [inhibitor, single point]
COc1ccc(NC(=O)CN(C)C(=O)c2ccc(S(=O)(=O)Nc3ccccc3C)cc2)cc1		inconclusive: 18.5 µM [inhibitor, single point]
COc1ccc(N2CCN(C(=O)c3ccc(CS(=O)(=O)c4ccc(OC)cc4)o3)CC2)cc1		inconclusive: 3.7 µM [inhibitor, single point]
CCOc1ccc2nc(SCC(=O)Nc3ccc(S(=O)(=O)N4CCCC4)cc3)c(C)cc2c1		inconclusive: 1.04 µM [inhibitor, partial curve]
O=[N+]([O-])c1cccc2c(N3CCOCC3)ccnc12	inactive: -107% [at 5.75 µM]	
CCOC(=O)CSc1nc(N)cc(=O)[nH]1		inconclusive: 0.0026 µM [inhibitor, full curve, poor fit]

4 entries from above, with each value named:
CCOC(=O)C1=C(C)N=C2SCCC(=O)N2C1c1cccs1 (configuration not stated)
  activity change, negative = inhibition: inactive: -6.46%
CCCCCCCOc1ccc(OC(=O)c2cccnc2)cc1
  Potency: inconclusive: 7.38 µM [inhibitor, partial curve, poor fit]
COc1ccc(F)c(CN2CCCC(CO)(Cc3cccc(Cl)c3)C2)c1 (configuration not stated)
  activity change, negative = inhibition: inactive: -28.7%
c1cc2c(cc1CN1CCOCC1)OCO2
  activity change, negative = inhibition: inactive: -11.7%

Continued.

Compound	activity change, negative = inhibition	Potency
Cc1cc(C)c2[nH]c(O)c(N=NC(=S)NCC3CCCO3)c2c1 (configuration not stated)		inconclusive: 10.4 µM [inhibitor, single point]
Cc1ccc(NC(NC(=O)Cc2ccccc2)C(Cl)(Cl)Cl)cc1 (configuration not stated)		inconclusive: 11.7 µM [inhibitor, single point]
Cc1ccc(S(=O)(=O)N2CCN(S(C)(=O)=O)C2)cc1		active: 13.1 µM
O=C(CSc1ccc(-c2cccnc2)nn1)c1ccc([N+](=O)[O-])cc1		inconclusive: 10.4 µM [inhibitor, single point]
Cc1cc(C)n(C(=O)CNC(=O)COc2ccccc2)n1	inactive: -18.6%	
COc1ccccc1NC(=O)c1sc(Cl)nc1C		inconclusive: 11.7 µM [inhibitor, partial curve]
O=C(Nc1ccc2c(c1)CCC2)c1cccc(S(=O)(=O)N2CCN(c3ccccc3)CC2)c1		inconclusive: 18.5 µM [inhibitor, partial curve, poor fit]
CCCCCCn1c(N2CCC(C)CC2)nc2c1c(=O)[nH]c(=O)n2C		inconclusive: 1.47 µM [inhibitor, full curve]
Cc1c(-c2cc(C(=O)O)c3ccccc3n2)cnn1C		inconclusive: 14.7 µM [inhibitor, single point]
O=c1[nH]c(=O)n(Cc2ccccc2)c2nc(-c3ccc(Oc4ccc(F)cc4)c([N+](=O)[O-])c3)n(CCO)c12		inconclusive: 6.57 µM [inhibitor, partial curve]
COc1cc(/C=N/NC(=S)NC2CC3CC2C2C=CCC32)ccc1O (configuration not stated)		inconclusive: 16.5 µM [inhibitor, single point]
CSc1ncccc1C(=O)NC1CCN(Cc2ccccc2)CC1		inconclusive: 9.28 µM [inhibitor, single point]
COc1ccc(OC)c(S(=O)(=O)N2CCC(C(=O)N3CCN(c4ccc(F)cc4)CC3)CC2)c1		inconclusive: 2.33 µM [inhibitor, partial curve, poor fit]
COc1ccc(C(=O)NC(CC(=O)O)c2cc([N+](=O)[O-])ccc2Cl)cc1 (configuration not stated)	inactive: 63%	
Cc1cc(C)c([N+](=O)[O-])cc1NC(=O)CCSc1ccccc1Cl		inconclusive: 11.7 µM [inhibitor, single point]
Cc1ccc(N2C(=O)NC(=O)C3(Cc4ccccc4N4CCN(c5ccccc5)CC43)C2=O)cc1 (configuration not stated)		inconclusive: 18.5 µM [inhibitor, single point]
CC(C)C(=O)Nc1ccc(-c2nc3ccccc3c(=O)o2)cc1	inactive: 12%	
COc1cccc(/C=C2/CN(C)CC3=C2OC(N)=C(C#N)C3c2cccc(OC)c2)c1 (configuration not stated)		inconclusive: 10.4 µM [inhibitor, single point]
CCS(=O)(=O)C1=NSC2=NC(=O)/C(=C\c3ccc(OS(=O)(=O)c4ccccc4)cc3)C(=N)N21	inactive: -0.896%	
O=C(CCCN1C(=O)c2cccc3cccc(c23)C1=O)NCc1ccco1	inactive: 128%	
Clc1ccc(-c2csc3ncnc(Cl)c23)cc1		inconclusive: 1.47 µM [inhibitor, full curve]
O=C(Cn1c(=O)c2cccn2c2cccnc21)N1CCN(c2ccccc2F)CC1		inconclusive: 2.33 µM [inhibitor, full curve, poor fit]
N#CCc1ccc(C(=O)c2ccccc2F)s1		inconclusive: 1.85 µM [inhibitor, full curve]

Compound	activity change, negative = inhibition	Potency
COc1ccc(NC(=O)Cn2nnc(-c3ccccc3NC(=O)c3cccs3)n2)cc1		inconclusive: 0.294 µM [inhibitor, full curve, poor fit]
O=C1NC(=S)S/C1=C/c1ccc(N2CCOCC2)o1	inactive: 28%	
Cc1nc2cc(NC(=O)N3CCCCC3)ccc2n1C		inconclusive: 18.5 µM [inhibitor, single point]
C=CCn1c(SCC(=O)c2c(N)n(C3CC3)c(=O)[nH]c2=O)nnc1-c1ccoc1C		inconclusive: 10.4 µM [inhibitor, partial curve, poor fit]
Cc1cc(=O)oc2c(C)c(OCC(=O)N3CCN(Cc4ccc5c(c4)OCO5)CC3)ccc12	inactive: 11.4%	
CCOCCCNC(=O)CCN1C(=O)c2ccccc2Sc2ncccc21		inconclusive: 0.0465 µM [inhibitor, full curve, poor fit]
CC(C)Oc1ccc(N2CC(C(=O)NC3=NCCS3)CC2=O)cc1 (configuration not stated)		inconclusive: 1.65 µM [inhibitor, full curve, poor fit]
COC(=O)C1=C(c2ccc(Cl)c(C(F)(F)F)c2)C[C@@H]2CC[C@H]1N2C(=O)NC1CCCCC1		inconclusive: 16.5 µM [inhibitor, single point]
Cc1ccc(S(=O)(=O)Nc2cccc(C(=O)NCC(C)(C)N3CCOCC3)c2)cc1F		inconclusive: 6.57 µM [inhibitor, partial curve, poor fit]
COc1ccc(-c2csc(NC(=O)C3CC(=O)N(Cc4ccccc4)C3)n2)cc1OC (configuration not stated)		inconclusive: 10.4 µM [inhibitor, partial curve]
Cc1ccc(N2C(N)=C(C#N)C(c3cccnc3)C3=C2CCCC3=O)cc1 (configuration not stated)		inconclusive: 18.5 µM [inhibitor, single point]
CCN1CCN(S(=O)(=O)c2ccc(Cl)c(C(=O)N(CC)Cc3ccccc3)c2)CC1	inactive: -1.38%	
COc1cc(-c2c(-c3ccc4c(c3)OCO4)noc2-c2ccsc2)ccc1F		inconclusive: 5.22 µM [inhibitor, single point]
CCN(CC(=O)NCc1ccc(Cl)cc1)C(=O)CSc1ccc(F)cc1	inactive: -2.31%	
Cc1csc(NC(=O)CSC2=NCCS2)n1		inconclusive: 18.5 µM [inhibitor, single point]
O=c1[nH]c(/C=C2\C=Nc3ccccc32)c(O)n1Cc1ccccc1F	inactive: -22.1%	
Cc1ccc(Oc2nc3c(C)cccn3c(=O)c2/C=C(\C#N)C(N)=O)cc1		inconclusive: 9.28 µM [inhibitor, partial curve]
Cc1ccc2c(c1)N(C(=O)CCC(=O)NCc1cccnc1)CC(C)O2 (configuration not stated)		active: 13.1 µM
CCc1cc(C(=O)Nc2ccc(S(=O)(=O)NC3=NCCCCC3)cc2)sc1C		active: 4.15 µM
CC(=O)CSc1nnc2c3ccccc3nc(C(C)(C)C)n12		inconclusive: 2.08 µM [inhibitor, partial curve, poor fit]
Cc1ccc(C(=O)N(CC(=O)NC2CCCC2)c2ccc(F)cc2)s1	inactive: 8.88%	
